Data as given in PubChem BioAssay AID504764 (Drosophila RNAi Screening Center, 2011).

- Assay: 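Knock-downs that raise or lower a Notch target reporter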 (primary screen)
- Cells: Drosophila Kc167 cells
- Reagents: long dsRNA against Drosophila genes
- Time to read-out: about 5 days (4 days dsRNA, then 24 h after transfection)
- Treatment: transfection of constitutively active membrane-tethered Notch lacking the extracellular domain, read 24 h later
- Detection: 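Firefly luciferase from an E(spl)m3 reporter with active Notch, plus control-promoter and uninduced reporter wells for normalisation; unnormalised counts, duplicate wells a and b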
- Scale: induced reporter light, run 1, well a and induced reporter light, run 1, well b: higher = more light from the Notch target reporter with active Notch; control promoter light, run 1, well a and control promoter light, run 1, well b: higher = more light from the viral control promoter (cell number, transfection, viability); uninduced reporter light, run 1, well a: higher = more light from the Notch target reporter without active Notch
- Call rule: 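Wells with low control signal or poorly matching duplicates excluded; duplicates averaged; per source plate, z beyond ±2 for induced/control log2 ratio or beyond ±1.8 for induced/uninduced marks a hit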
- Meaning of the calls: active = modifier hit (raised or lowered Notch signal); inactive = not a hit
The deposit covers about 22,000 reagents; below is an unselected part of those with a known target gene and a result. Over the whole deposit, 403 (1.9%) were called active. 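Unnormalised raw counts per well; ratio z-scores behind the hit calls and whether each hit raises or lowers signal are not deposited.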 Not stated in the record: the amount of reagent.

target	amplicon	induced reporter light, run 1, well a	induced reporter light, run 1, well b	control promoter light, run 1, well a	control promoter light, run 1, well b	uninduced reporter light, run 1, well a	Outcome
NaCP60E (Na channel protein 60E)	DRSC04307	2.54e5	2.19e5	2.00e5	1.87e5	17560	inactive
CG3246	DRSC00584	1.52e5	1.10e5	1.31e5	1.13e5	9775	inactive
Miga (Mitoguardin)	DRSC17821	1.22e5	1.27e5	2.50e5	2.10e5	11320	inactive
CG31693	DRSC03674	99735	88750	93535	1.21e5	10315	inactive
CG8543	DRSC10990	2.13e5	2.16e5	2.47e5	2.13e5	8715	inactive
CG8543	DRSC22809						inactive
CG8929	DRSC07298	1.09e5	1.30e5	1.91e5	1.83e5	9900	inactive
CG4393	DRSC15573	1.73e5	1.83e5	2.26e5	2.11e5	16005	inactive
CG32755	DRSC18397	1.28e5	1.40e5	2.67e5	2.16e5	9850	inactive
Mes2 (Mesoderm-expressed 2)	DRSC11593	27920	25170	43970	44020	3565	inactive
Mes2 (Mesoderm-expressed 2)	DRSC11632	21105	17305	23610	21178	2950	inactive
Hel89B (Helicase 89B)	DRSC16700	1.77e5	1.98e5	2.49e5	2.44e5	14460	inactive
CG12112	DRSC17809	2.50e5	2.26e5	2.54e5	2.54e5	15160	inactive
kipf (kipferl)	DRSC15446	93245	93300	1.07e5	79575	7260	inactive
CG40948 (retired record)	DRSC20944	2.42e5	2.07e5	3.24e5	3.73e5	18710	inactive
Nf-YC (Nuclear factor Y-box C)	DRSC18272	6290	6895	8380	9355	3290	inactive
CG4783	DRSC15644	1.58e5	1.73e5	2.28e5	2.63e5	11655	inactive
CG14440	DRSC17933	23670	19345	32215	25190	5470	inactive
AdipoR (Adiponectin receptor)	DRSC15767	1.74e5	1.54e5	2.18e5	2.39e5	14960	inactive
me31B (maternal expression at 31B)	DRSC03569	73770	1.00e5	90250	98675	7760	inactive

Entries above whose target name begins with N or n (2):
target	amplicon	induced reporter light, run 1, well a	induced reporter light, run 1, well b	control promoter light, run 1, well a	control promoter light, run 1, well b	uninduced reporter light, run 1, well a	Outcome
NaCP60E (Na channel protein 60E)	DRSC04307	2.54e5	2.19e5	2.00e5	1.87e5	17560	inactive
Nf-YC (Nuclear factor Y-box C)	DRSC18272	6290	6895	8380	9355	3290	inactive
